Data on one compound can be found in patent US20240391926A1, “SPIROINDOLINONE COMPOUNDS AS Kv1.3 POTASSIUM SHAKER CHANNEL BLOCKERS” (D.E. Shaw Research, LLC, priority 2021, published 2024).

The chains behind the UniProt entries cited, without tags or fusion partners.
UniProt P22001, whole entry: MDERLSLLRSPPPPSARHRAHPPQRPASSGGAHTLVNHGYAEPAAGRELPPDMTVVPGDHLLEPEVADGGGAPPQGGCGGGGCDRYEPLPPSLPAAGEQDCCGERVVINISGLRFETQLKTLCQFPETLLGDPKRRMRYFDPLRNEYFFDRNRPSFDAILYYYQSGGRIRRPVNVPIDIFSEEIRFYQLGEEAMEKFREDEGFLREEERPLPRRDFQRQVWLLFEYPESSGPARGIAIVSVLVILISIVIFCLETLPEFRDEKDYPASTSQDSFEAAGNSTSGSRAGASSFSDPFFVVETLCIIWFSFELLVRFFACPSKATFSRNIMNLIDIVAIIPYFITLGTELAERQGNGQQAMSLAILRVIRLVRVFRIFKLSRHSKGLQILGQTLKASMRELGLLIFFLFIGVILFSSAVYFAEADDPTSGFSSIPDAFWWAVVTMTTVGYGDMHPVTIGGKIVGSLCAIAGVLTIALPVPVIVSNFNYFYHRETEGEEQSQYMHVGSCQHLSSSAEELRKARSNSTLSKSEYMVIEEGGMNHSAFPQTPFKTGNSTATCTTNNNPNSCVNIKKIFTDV

The match of structure and compound is tentative. Some results are limits rather than exact numbers.

The term IC50 denotes the concentration that inhibits the measured activity by half.

The assay deals with Kv1.3 potassium channel (Homo sapiens, UniProt P22001). Kind of assay: Kv1.3 potassium channel blocker activity, automated whole-cell patch clamp (Patchliner) in CHO-K1 cells stably expressing Kv1.3. The settings on record: read-out: Kv1.3 IC50, 30 nM-100 μM. As to the method:
This assay is used to evaluate the disclosed compounds' activities as Kv1.3 potassium channel blockers.
CHO-K1 cells stably expressing Kv1.3 were grown in DMEM containing 10% heat-inactivated FBS, 1 mM sodium pyruvate, 2 mM L-glutamine, and G418 (500 μg/ml). Cells were grown in culture flasks at 37° C. in a 5% CO2-humidified incubator.
The cells were bathed in an extracellular solution containing 140 mM NaCl, 4 mM KCl, 2 mM CaCl2), 1 mM MgCl2, 5 mM glucose, 10 mM HEPES; pH adjusted to 7.4 with NaOH; 295-305 mOsm. The internal solution contained 50 mM KCl, 10 mM NaCl, 60 mM KF, 20 mM EGTA, 10 mM HEPES; pH adjusted to 7.2 with KOH; 285 mOsm. All compounds were dissolved in DMSO at 30 mM. Compound stock solutions were freshly diluted with external solution to concentrations of 30 nM, 100 nM, 300 nM, 1 μM, 3 μM, 10 μM, 30 μM and 100 μM. The highest content of DMSO (0.3%) was present in 100 μM.
The currents were evoked by applying 100 ms depolarizing pulses from −90 mV (holding potential) to +40 mV were applied with 0.1 Hz frequency. Control (compound-free) and compound pulse trains for each compound concentration applied contained 20 pulses. 10-second breaks were used between pulse trains (see Table A below).
Whole-cell current recordings and compound application were enabled by means of an automated patch clamp platform Patchliner (Nanion Technologies GmbH). […]
For orientation: In patch-clamp work, channel activity is measured electrically.

With `O=C(c1c[nH]cn1)N1CC[C@]2(C1)C(=O)Nc1cc(Cl)c(Cl)cc12`, the half-maximal inhibitory concentration (IC50) is below 1000 nM.
